The text below walks through data of PubChem BioAssay AID1347426 (Functional Genomics Laboratory (NCATS/FGL), 2020).

Among all 31,000 sequences or so, about 1,400 (4.5%) were called active.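 The calls were made as follows: active = median seed-adjusted z-score above 1 or below -1; inactive = the rest.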 The list shows a part of the results.

This test in a line: Novel Modifiers of Survival Motor Neuron (SMN) Protein: Gene Identification via Genome-wide siRNA Screen.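 Also: luminescence tracks full-length SMN protein made from the SMN2 reporter.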 The conditions noted are these: HEK293T SMN2-luciferase reporter, siRNA knockdown, 72 h; actives lie on both sides. A digest of the protocol: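 HEK293T cells stably expressing an SMN2 splicing/cDNA-luciferase reporter were reverse-transfected with a druggable-genome siRNA library and read by luminescence at 72 hours; hits defined by MAD score above 1.0 or below -1.0.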
Turning to GUACAGGGAGCAGAUCAAATT against HRAS, the median seed-adjusted z-score was inactive: -0.85. For CGACCUACCCGAUAGAUGATT against TSTA3, the median seed-adjusted z-score is inactive: 0.155. Take CAGACAAAUUUUAACCACATT against SLC17A8: the median seed-adjusted z-score was inactive: -0.332. Next, GGUGGGUGGUGAGAUCAAUTT against KRT17: inactive: -0.0871; CUGUUAUUCUUGCUCGUGUTT against LEPROT: inactive: -0.17; CACCUACUGUAGAGGUGAATT against GPRC6A: inactive: 0.

As to CCACAUUUGUGACGCAAAATT against TPSAB1, the median seed-adjusted z-score is inactive: 0.197.

As to GGAGUGUCAAGAUAUCAAUTT against LTBP2, the median seed-adjusted z-score is inactive: 0.0496. Next, CAAAAACAGUGGAUAAUUUTT against PPIB: inactive: 0.038. In the case of GCAGCAUUUUUGUGGACGATT against ADAMTS18 it was inactive: 0.824; in that of GCAUUGUAGUUAUUAUUUUTT against OLIG2, inactive: 0.00944. Take GCAUCAAGUUUAUAAGACATT against TXNRD1: the median seed-adjusted z-score was inactive: 0.485. Next, AUAUGGGACAGAAACCAUATT against ZNF222: inactive: 0.13. Next, GUCCCGGAAUUACAGAGUATT against LIAS: inactive: -0.31; CAGCUACCCUUCCAUCAUATT against BRCA1: inactive: -0.0302. For the sequence CAAGCAUCUUUGUCAAAGATT against PTH2R, the median seed-adjusted z-score is inactive: -0.492. Next, GAAUCCCGUUGUUCGGAUATT against FAP: inactive: -0.258; GGCUAUUACUCAGUACAGATT against TLN1: inactive: -0.0619. Next, GAUAUGAAUCAAUUCCGAATT against CROT: inactive: -0.612. With GCAAUACUCUUAACCAUAATT against FOXA1, the median seed-adjusted z-score is inactive: 0.279. For the sequence AGAUAAAGCGAUCUAAACUTT against ASCC3, the median seed-adjusted z-score is inactive: -0.192. In the case of GGAGGAUAGCAGCAGAAGATT against ATP5I, the median seed-adjusted z-score is inactive: -0.871. In the case of GCAAUUCGAUUAGCAGCUATT against PCDHGC4 it was inactive: 0.301. Turning to GAAGGUCCUAGUUAUCCAATT against CYB5R4, the median seed-adjusted z-score is inactive: 0. For the sequence ACUGAGAUCUUGUUCCACUTT against NOL6, the median seed-adjusted z-score was inactive: -0.751. GAUUUAAGCAGAGUUCAAATT against BCR: the median seed-adjusted z-score was inactive: 0.143.

GUAUCAUAGCAACGAUUUATT against SLC7A9: the median seed-adjusted z-score was inactive: 0.194. In the case of GGAGAAUGCCGAAGAGGAATT against POLR2F it was active: -3.52; in that of GAAUCUGAACGAACGAUAUTT against ULK2, inactive: -0.0393; in that of AACCAAGGGUGGUAAUGUUTT against ABCF1, inactive: -0.221. For the sequence GAUCCUCAGUAAACCUAUUTT against DDX46, the median seed-adjusted z-score was active: -1.24.

With GCCCUAUACAUAUUGGGUUTT against CYP2E1, the median seed-adjusted z-score is inactive: 0.81. Next, GAAACAUAGUUCAACUGAATT against ELK1: inactive: -0.52.

On to CUAUGAUGCUGCCCAAAGATT against SAA4, for which the median seed-adjusted z-score is inactive: 0.104. Next, GCAUCAUCGUGCUCUGCUATT against OPN1MW: inactive: -0.369; CCAUACUUGAAAACUAUUUTT against DOT1L: inactive: 0.164. Next, GCCCAUCGUGCUUAAAGAATT against RASA3: inactive: 0.0056.

Take GAACUUUGUUACUAUCGAATT against PCDH9: the median seed-adjusted z-score is inactive: 0.165. As for GGACUUACGGCUGUACGAATT against FSD2, the median seed-adjusted z-score was inactive: 0.359. As to GCAACCACGCCUCACCAAATT against TFDP3, the median seed-adjusted z-score was inactive: -0.135. In the case of CUGUUUAAGCGAUGACAAATT against CFL2 it was inactive: -0.148; in that of GGCGAAGGCAUCUCAGUUATT against PDCL, inactive: -0.802; in that of UGAUCAGCCUCGACCGGUATT against HRH2, inactive: -0.257. Consider GUCCAACACUGAUAAGAUUTT against LCORL, for which the median seed-adjusted z-score is inactive: -0.0458. Next, AGAGCUAUGCUUUAGGUCUTT against S100A2: inactive: -0.0951; CCCACACCUCUUUAAGUAUTT against DNTTIP1: inactive: -0.33. Next, CAUGCGCAAAAUCACCAAATT against ARL8A: inactive: -0.0844. Next, UGAAGAAUAUUUUCCAUGATT against SLC26A6: inactive: 0.316; GGACAUAGCUUGGUGAACUTT against HEL308: inactive: 0.229; AGAUCAACGCAGGCAUGUATT against GMPPB: inactive: 0.154.

As to UCAUAAACUUGGAUAAGCATT against NRIP3, the median seed-adjusted z-score is inactive: -0.699.

Take CCUUAAUUUUCGCAGAUAATT against PANK4: the median seed-adjusted z-score was inactive: 0.00068. In the case of CGCUGAUCGUUAUACCCGUTT against RAMP3 it was inactive: 0; in that of CAGCAGACGUAAAAAUUCATT against MSX2, inactive: -0.406.

For the sequence ACAUCAUUACGGACAAAAATT against CNGB1, the median seed-adjusted z-score is inactive: -0.627. Next, GACUAUCUUUUUAGGCAAATT against BRIP1: inactive: 0.312; GAGCCCAGCUGAAACGAGATT against NDUFB4: inactive: -0.697. As to AGUUCUUCGAGAACCGCAATT against WIZ, the median seed-adjusted z-score was inactive: 0.282. Take CAGUGGAACCCAAGAAUAATT against SALL2: the median seed-adjusted z-score was inactive: 0.504. Consider ACACUGUUGCAAGGACUAATT against NCR2, for which the median seed-adjusted z-score is inactive: -0.0526. In the case of CCGACAAGAUGUGAAGUCATT against ADD2 it was inactive: -0.176; in that of GGACAGGAACCAGAACCCATT against ZFPM1, inactive: -0.925. For the sequence CGUGAAGAGAUGUUACAAATT against POLB, the median seed-adjusted z-score was inactive: 0.376. Next, ACUGCUUUAUCCAAAUUCATT against CSF2RA: inactive: -0.227; GAAUCCUCCCAAUUGAUCATT against LSG1: active: 1.31; CUACAUUCUUAAUGCCGAUTT against EIF3L: inactive: 0.656. Next, CUUAAUCACUUGCAUAAAATT against GALR1: inactive: -0.721. Next, GGUCUGCACUCAUCACUAUTT against MGAT4A: inactive: 0.134; CUAGAUACGUGUUCAGGAATT against CNTN4: inactive: -0.407.
